# Experimental data as given in PubChem BioAssay AID1347075 (National Center for Advancing Translational Sciences (NCATS), 2019).
# Screen size: about 400,000 compounds; about 5,500 (1.4%) were called active. Inconclusive results, whose numbers are uncertain, are shown with a selection of clear calls. Calls follow the shape of the dose curve; as a rule, active = well fitted cell-killing curve with a large enough effect; inconclusive = small, poorly fitted or top-dose-only effect, or effect the other way; inactive = flat fitted curve, though single readings scatter. Where the call is inconclusive, the potency comes from a doubtful curve fit.
# Test: qHTS assay for MDR1-selective chemotherapeutics: Primary screen using the parental adenocarcinoma cell KB-3-1; also: nearly all actives have a fitted effect of over 60% in size
# Details: KB-3-1 viability, CellTiter-Glo ATP luminescence, 72 h; activity change, negative = cytotoxic: at 46.1 µM (top of the series)
# Outline: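 Cells are dispensed, compounds pinned in, plates held at 37 °C for 72 h, then CellTiter-Glo is added and luminescence read after 10 minutes. Cell line: parental KB-3-1 in phenol-red-free DMEM, 10% FBS.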
# % is scaled to controls: 0 for no effect and ±100 for the full control effect; potency is read from the fitted curve at half-maximal effect.
Structure (SMILES),Potency,"activity change, negative = cytotoxic"
COc1ccc(NC(=O)c2cc(-c3ccccc3)nc3c2cnn3C(C)C)cc1,"inconclusive: 1.46 µM [rising, full curve]",–
C#CCOCCOCCOCCNc1nc(N2CCN(C(=O)CCCCCCCCCCNC(=O)[C@@H]([C@H](C)O)n3cc(C)nn3)CC2)nc(N2CCN(C(=O)CCCCCCCCCCNC(=O)[C@@H]([C@H](C)O)n3cc(C)nn3)CC2)n1,"inconclusive: 29.1 µM [cytotoxic, single point]",–
CC(C)[C@H](Nc1ccc(S(=O)(=O)N2CCOCC2)cc1[N+](=O)[O-])C(=O)OCC(=O)N(C(C)C)C(C)C,"inconclusive: 20.6 µM [rising, single point]",–
COc1cccc(-c2cnc3c(NC(C)=O)cc(-c4cc(F)ccc4OC)cn23)c1,active: 16.4 µM,–
O=C(Nc1ccccc1)[C@@H]1CCCN1S(=O)(=O)c1ccc(Cl)cc1,"inconclusive: 29.1 µM [rising, single point]",–
O=C(Nc1nc(-c2nc3ccccc3s2)cs1)c1ccc(S(=O)(=O)N2CCOCC2)cc1,"inconclusive: 16.4 µM [cytotoxic, single point]",–
COc1ccccc1CN(C)CC(=O)c1c(C)[nH]c2ccccc12,–,inactive: 5.41%
COc1ccc(N2CCN(C(=O)CCc3c(C)nc4c(-c5ccccc5)c(C)nn4c3C)CC2)cc1,–,inactive: -2.33%
CCOC(=O)C(C)N1N=C(/C=C/c2ccc(C)cc2)CCC1=O (stereo not given),"inconclusive: 20.6 µM [cytotoxic, single point]",–
Cc1ccc2cc(CCNS(=O)(=O)c3ccc(Br)cc3)c(=O)[nH]c2c1C,"inconclusive: 23.1 µM [cytotoxic, single point]",–
NC(=O)CNC(=O)c1ccc(Cl)cc1,–,inactive: -14.6%
Cc1c(C(=O)N(C)Cc2nc3ccccc3c(=O)[nH]2)oc2ccccc12,active: 18.4 µM,–
Clc1cccc2c1Sc1ccccc1CC2N1CCNCC1 (stereo not given),"inconclusive: 18.4 µM [cytotoxic, single point]",–
COc1ccc(OC)c(Nc2nc(NCc3ccco3)nc(N)c2[N+](=O)[O-])c1,–,inactive: 19%
COc1cc(/C=C2/CC/C(=C/c3ccc(O)c(OC)c3)C2=O)ccc1O,"inconclusive: 14.6 µM [cytotoxic, partial curve, poor fit]",–
CN(C)S(=O)(=O)c1cccc(N2C(=O)CC3(CCCCC3)CC2=O)c1,"inconclusive: 29.1 µM [cytotoxic, single point]",–
COc1ccc(C(=O)Nc2cc(OC)c(Cl)cc2OC)cc1,"inconclusive: 23.1 µM [cytotoxic, single point]",–
CC(C)(C)n1nnnc1C(c1ccncc1)N(Cc1ccccc1)Cc1ccco1 (stereo not given),"inconclusive: 20.6 µM [cytotoxic, partial curve, poor fit]",–
CCOC(=O)c1c(-c2ccccc2)oc2ccc(OCC(O)CN(C)C)cc12 (stereo not given),"inconclusive: 25.9 µM [cytotoxic, single point]",–
CC1(C(=O)NC2CCCCC2)CCC(=O)N1Cc1ccc2c(c1)OCO2 (stereo not given),–,inactive: 6.58%
CCn1c(SCC(=O)N/N=C/C=C\c2ccccc2[N+](=O)[O-])nc2ccccc21,"inconclusive: 29.1 µM [cytotoxic, single point]",–
C[C@@H]1CCCCO[C@H](CN(C)Cc2ccc(C(=O)O)cc2)[C@@H](C)CN([C@H](C)CO)C(=O)c2cc(NC(=O)CCC(F)(F)F)ccc2O1,"inconclusive: 29.1 µM [rising, single point]",–

Structure (SMILES),Potency,"activity change, negative = cytotoxic"
O=c1c2cc(Cl)ccc2nc(-c2ccc(Cl)c(Cl)c2)n1O,"inconclusive: 20.6 µM [cytotoxic, partial curve, poor fit]",–
CCCCC(=O)N1C/C=C\C(c2ccc(OC)cc2)N(Cc2ccc(F)cc2)C(=O)[C@H]1Cc1ccccc1 (stereo not given in full),"inconclusive: 29.1 µM [cytotoxic, single point]",–
COC(=O)Nc1nn(-c2ccc(Cl)cc2)c(=O)c(C#N)c1C,"inconclusive: 2.31 µM [cytotoxic, partial curve, poor fit]",–
COc1ccc(C(=O)Nc2cccc(/C(C)=N/NC(=O)c3ccc([N+](=O)[O-])c(C)c3)c2)cc1OC,"inconclusive: 29.1 µM [cytotoxic, single point]",–
COc1ccc(-c2c(-c3cc(OC)cc(OC)c3)n(C)c3ccc(-c4cccc5[nH]ccc45)cc23)cc1,"inconclusive: 20.6 µM [cytotoxic, single point]",–
CCC(C)NC(=O)c1cc(Cl)c(NC(=O)C2=C(C)OCCS2)cc1OC (stereo not given),"inconclusive: 32.6 µM [cytotoxic, single point]",–
CCOc1ccc(N(CC(=O)Nc2ccccc2C)S(=O)(=O)c2c(C)noc2C)cc1,active: 5.8 µM,–
CC(C)(C)c1ccc(C(=O)CCC(=O)OCC(=O)NCCc2ccc(S(N)(=O)=O)cc2)cc1,–,inactive: 2.29%
CN(C)S(=O)(=O)c1cc(NC(=O)CSc2nn(-c3ccc(Cl)cc3)c(=S)s2)ccc1Cl,"inconclusive: 18.4 µM [cytotoxic, single point]",–
COc1ccc(-c2cc(C(=O)Nc3c(Cl)cccc3Cl)no2)cc1OC,–,inactive: -2.4%
Cc1ccc(S(=O)(=O)N2CCN(Cc3cc4c(cc3Br)OCCO4)CC2)cc1,active: 3.66 µM,–
COC(=O)[C@@]1(Cc2ccc(OC)cc2)[C@@H]2C(=CC(=O)[C@H]2CC(=O)C(=O)N(C)C)CN1C(=O)c1ccccc1,active: 16.4 µM,–
C[C@@H](NC(=O)c1[nH]cnc1C(=O)Nc1ccccc1)c1ccccc1,"inconclusive: 29.1 µM [cytotoxic, single point]",–
O=C(NN=Cc1ccc(O)cc1)C(=O)NN=Cc1ccc(O)cc1,–,inactive: 9.65%
Fc1ccc(Nc2nnc(C(F)(F)F)s2)cc1Cl,"inconclusive: 23.1 µM [cytotoxic, single point]",–
Cc1cccc(NC(=O)Nc2ccc(C#N)cc2)n1,"inconclusive: 20.6 µM [cytotoxic, single point]",–
COc1cc(C)ccc1OCc1cc(C(=O)N(C)CCCN2CCOCC2)no1,–,inactive: -2.15%
COc1ccc(Cl)cc1NC(=O)CN(c1cc(C)cc(C)c1)S(=O)(=O)c1c(C)n[nH]c1C,"inconclusive: 29.1 µM [cytotoxic, partial curve, poor fit]",–
CCc1ccc(NC(=O)c2cc3c(=O)n(Cc4cccs4)ccc3nc2C)cc1,"inconclusive: 16.4 µM [cytotoxic, single point]",–
CC(C)C[C@H]1CNC(=S)N1CC1CCCN1C[C@H](Cc1ccc(O)cc1)N1C[C@H](Cc2ccccc2)N(CC2CCCCC2)C1=S (stereo not given in full),–,inactive: 0%
Cc1ccc(S(=O)(=O)N(C)c2ccc3c(c2)C(=O)c2ccccc2-3)cc1,"inconclusive: 18.4 µM [cytotoxic, single point]",–
O=C(Cc1ccccc1)N1CCCC(c2nc(-c3ccc(S(=O)(=O)N4CCCC4)cc3)no2)C1 (stereo not given),–,inactive: 0.72%

Structure (SMILES),Potency,"activity change, negative = cytotoxic"
Cc1ccc2ncc(C)c(/C=C/c3ccc(N(C)C)cc3)c2c1,"inconclusive: 29.1 µM [cytotoxic, single point]",–
COc1ccccc1NC(=O)c1ccc2c(=O)n3c(nc2c1)CCC3,"inconclusive: 23.1 µM [rising, single point]",–
Cc1cc(C)n2c(Nc3ccc4c(c3)OCCO4)c(-c3ccc(F)cc3)nc2n1,"inconclusive: 25.9 µM [cytotoxic, single point]",–
COc1cccc(NC(=O)CSc2nc3ccc(NC(=O)c4ccco4)cc3s2)c1,"inconclusive: 29.1 µM [cytotoxic, single point]",–
CCN(CC)C(=O)CSc1nnc2nnc3cc(Cl)ccc3n12,"inconclusive: 18.4 µM [cytotoxic, partial curve]",–
CCN1CC(CN(C)Cc2nc(-c3ccc(C(F)(F)F)cc3)no2)CC1=O (stereo not given),"inconclusive: 25.9 µM [cytotoxic, single point]",–
COn1c(SCc2ccc(C)cc2C)nc2ccccc2c1=O,"inconclusive: 20.6 µM [cytotoxic, single point]",–
COc1ccc(OC)c(NC(=O)Cn2cc(C(=O)c3ccco3)c3ccccc32)c1,–,inactive: -19%
CCc1ccc2oc(-c3ccc(OC)cc3)cc(=Nc3c(C)n(C)n(-c4ccccc4)c3=O)c2c1,"inconclusive: 29.1 µM [cytotoxic, single point]",–
C/C(=N\NC(=O)c1cccnc1)c1cc(C)oc1C,–,inactive: -7.82%
COCCNC(=O)C(c1ccc(F)cc1)N(C(=O)CCC(=O)Nc1ccccn1)C1CCCCC1 (stereo not given),–,inactive: -4.52%
CCOc1ccc(S(=O)(=O)Oc2ccc3ccccc3c2)cc1,"inconclusive: 25.9 µM [cytotoxic, partial curve, poor fit]",–
CCCn1nc(C(=O)NC2CCCCCC2)c2ccccc2c1=O,–,inactive: 4.87%
COc1cc(C2C3=C(Nc4ncnn42)c2ccccc2CC3)cc(OC)c1OC (stereo not given),active: 0.291 µM,–
Cc1ccc(C(=O)NCC(c2ccc(F)cc2)N2CCOCC2)cc1S(=O)(=O)N1CCOCC1 (stereo not given),–,inactive: -0.928%
COc1ccccc1NC(=O)Cn1c(=O)n(Cc2ccco2)c(=O)c2oc3ccccc3c21,–,inactive: -6.14%
C=CCn1c(COc2ccccc2)nnc1SC(C)C(=O)N/N=C/c1cc(Cl)ccc1O (stereo not given),"inconclusive: 29.1 µM [cytotoxic, single point]",–
Cc1ccc(N2C(=O)CSC2c2cccnc2)c(Cl)c1 (stereo not given),"inconclusive: 29.1 µM [cytotoxic, single point]",–
CC1(C)Cc2c(C#N)c(N3CCOCC3)nc(Cc3ccccc3)c2CO1,"inconclusive: 18.4 µM [cytotoxic, single point]",–
CC1Cc2nc(SCC(=O)N3CCN(c4ccccc4)CC3)n(CCc3ccccc3)c(=O)c2S1 (stereo not given),–,inactive: 2.7%
CCc1ccc(-c2cc(C(F)(F)F)n3nc(C(=O)Nc4c(C)nn(Cc5ccc(F)cc5)c4C)cc3n2)s1,"inconclusive: 18.4 µM [cytotoxic, single point]",–
